# Laboratory results: publication doi:10.1101/2023.02.19.529116 (bioRxiv, 2023)
# Results are given in words; binding and its absence hold for the method and conditions named. For some of these results: Binding can be weak; no strength is given. For some of these results: Tags and fused reporters may be left off the sequences shown.
# T1: PH-EGFP-Smaug (Drosophila) (UniProt Q23972)
# T1 sequence: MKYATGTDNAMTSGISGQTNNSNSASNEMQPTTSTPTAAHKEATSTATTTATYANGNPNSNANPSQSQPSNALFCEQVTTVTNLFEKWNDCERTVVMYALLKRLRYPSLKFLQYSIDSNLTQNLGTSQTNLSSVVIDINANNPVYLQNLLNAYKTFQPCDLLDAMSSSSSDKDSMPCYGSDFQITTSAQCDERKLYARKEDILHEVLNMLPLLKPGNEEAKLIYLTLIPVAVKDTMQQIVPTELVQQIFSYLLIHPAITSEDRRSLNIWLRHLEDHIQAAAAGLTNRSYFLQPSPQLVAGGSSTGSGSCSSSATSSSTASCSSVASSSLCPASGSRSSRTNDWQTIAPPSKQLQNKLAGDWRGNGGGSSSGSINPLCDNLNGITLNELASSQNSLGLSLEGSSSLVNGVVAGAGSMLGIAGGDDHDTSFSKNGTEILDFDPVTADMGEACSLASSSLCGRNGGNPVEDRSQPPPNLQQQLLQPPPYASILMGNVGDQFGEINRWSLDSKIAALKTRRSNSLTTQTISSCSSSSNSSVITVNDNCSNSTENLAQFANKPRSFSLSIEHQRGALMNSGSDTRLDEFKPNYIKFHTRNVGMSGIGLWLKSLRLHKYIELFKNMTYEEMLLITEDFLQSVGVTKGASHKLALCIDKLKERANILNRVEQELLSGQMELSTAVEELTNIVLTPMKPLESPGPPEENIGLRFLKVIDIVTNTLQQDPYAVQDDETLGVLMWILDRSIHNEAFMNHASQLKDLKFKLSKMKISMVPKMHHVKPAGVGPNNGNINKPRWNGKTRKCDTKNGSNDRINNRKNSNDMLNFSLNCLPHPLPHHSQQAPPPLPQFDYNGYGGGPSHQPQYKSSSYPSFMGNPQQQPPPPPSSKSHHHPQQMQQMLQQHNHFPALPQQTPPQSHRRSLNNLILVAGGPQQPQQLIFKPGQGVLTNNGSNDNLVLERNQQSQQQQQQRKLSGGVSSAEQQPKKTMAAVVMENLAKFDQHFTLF
# T2: Smoothened (ReLo) (Drosophila) (UniProt P91682)
# T2 sequence: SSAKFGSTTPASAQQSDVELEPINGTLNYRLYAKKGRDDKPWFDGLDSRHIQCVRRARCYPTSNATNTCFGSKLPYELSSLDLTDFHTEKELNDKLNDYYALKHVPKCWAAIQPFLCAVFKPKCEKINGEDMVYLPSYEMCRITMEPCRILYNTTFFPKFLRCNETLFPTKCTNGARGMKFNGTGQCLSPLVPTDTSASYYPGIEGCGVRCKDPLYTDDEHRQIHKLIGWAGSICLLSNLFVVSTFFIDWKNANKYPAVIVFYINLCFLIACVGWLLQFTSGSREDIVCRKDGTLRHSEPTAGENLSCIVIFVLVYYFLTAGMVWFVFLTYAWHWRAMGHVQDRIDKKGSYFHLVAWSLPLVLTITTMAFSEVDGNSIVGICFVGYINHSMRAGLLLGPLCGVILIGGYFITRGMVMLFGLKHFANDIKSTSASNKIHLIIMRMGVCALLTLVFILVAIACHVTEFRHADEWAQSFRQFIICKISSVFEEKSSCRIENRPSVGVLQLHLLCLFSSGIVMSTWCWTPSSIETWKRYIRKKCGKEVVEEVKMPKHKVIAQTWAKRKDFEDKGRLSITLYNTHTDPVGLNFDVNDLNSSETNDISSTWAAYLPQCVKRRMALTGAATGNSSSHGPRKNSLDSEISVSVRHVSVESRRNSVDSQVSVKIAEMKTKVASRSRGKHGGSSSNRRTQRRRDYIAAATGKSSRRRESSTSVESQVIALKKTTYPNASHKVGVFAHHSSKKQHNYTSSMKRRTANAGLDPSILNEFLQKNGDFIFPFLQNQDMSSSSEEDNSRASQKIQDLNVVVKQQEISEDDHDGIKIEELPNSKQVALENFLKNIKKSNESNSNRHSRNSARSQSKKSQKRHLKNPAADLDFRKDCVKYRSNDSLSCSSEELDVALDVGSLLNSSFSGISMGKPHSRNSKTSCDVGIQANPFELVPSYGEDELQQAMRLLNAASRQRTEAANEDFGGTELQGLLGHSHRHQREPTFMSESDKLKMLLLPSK
# T3: Smoothened cytotail (Smo 556-1036), ReLo (Drosophila) (UniProt P91682)
# T3 sequence: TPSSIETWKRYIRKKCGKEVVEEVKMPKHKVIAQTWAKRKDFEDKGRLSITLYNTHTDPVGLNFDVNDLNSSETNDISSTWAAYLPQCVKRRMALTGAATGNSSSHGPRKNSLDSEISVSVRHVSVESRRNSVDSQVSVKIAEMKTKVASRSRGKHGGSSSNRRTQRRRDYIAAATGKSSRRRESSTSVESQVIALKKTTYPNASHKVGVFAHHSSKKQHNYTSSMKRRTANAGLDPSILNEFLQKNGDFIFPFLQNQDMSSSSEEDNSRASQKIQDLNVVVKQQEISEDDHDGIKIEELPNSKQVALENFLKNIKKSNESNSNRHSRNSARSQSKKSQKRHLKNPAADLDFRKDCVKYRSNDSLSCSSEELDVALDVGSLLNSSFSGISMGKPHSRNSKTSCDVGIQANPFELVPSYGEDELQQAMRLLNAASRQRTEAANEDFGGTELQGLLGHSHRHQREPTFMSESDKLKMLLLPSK
# B1: Smaug (Y2H) (protein, UniProt Q23972 1-999)
# chain: T1 sequence
# B2: Smaug 37-281 (domain or fragment, UniProt Q23972 37-281)
# chain: TAAHKEATSTATTTATYANGNPNSNANPSQSQPSNALFCEQVTTVTNLFEKWNDCERTVVMYALLKRLRYPSLKFLQYSIDSNLTQNLGTSQTNLSSVVIDINANNPVYLQNLLNAYKTFQPCDLLDAMSSSSSDKDSMPCYGSDFQITTSAQCDERKLYARKEDILHEVLNMLPLLKPGNEEAKLIYLTLIPVAVKDTMQQIVPTELVQQIFSYLLIHPAITSEDRRSLNIWLRHLEDHIQAAA
# B3: Smaug (ReLo, without membrane anchor) (protein, UniProt Q23972 1-999)
# chain: T1 sequence
# What was measured:
# [1] = target: T1, PH-EGFP-Smaug (Drosophila); assay: ReLo
# [2] = target: T2, Smoothened (ReLo) (Drosophila); assay: ReLo
# [3] = target: T3, Smoothened cytotail (Smo 556-1036), ReLo (Drosophila); assay: ReLo
# [4] = target: Short Oskar (Y2H) (Drosophila); assay: two-hybrid
# [5] = target: MBP-Oskar 292-325 (Drosophila); assay: pull-down
# [6] = target: OST4-Short Oskar with the deletion of the SBR (ReLo) (Drosophila); assay: ReLo
# [7] = target: Smoothened deletion, ReLo (Drosophila) (UniProt P91682); assay: ReLo
# [8] = target: Long Oskar (ReLo) (Drosophila); assay: ReLo
molecule,measurement,setting,value
Bard (from UniProt Q9VED4),binding,[1],binds
C-terminal regulatory domain of Fused (Drosophila) (domain or fragment),binding,[2],binds
Slmb (Drosophila),binding,[1],no binding
"Smaug NTD MUT (S250E/L253E), ReLo (Drosophila) (domain or fragment)",binding,[3],no binding
"Smaug deletion, ReLo (from UniProt Q23972)",binding,[2],no binding
B1,binding,[4],binds
B2,binding,[5],binds
B3,binding,[6],no binding
same,binding,[7],no binding
same,binding,[8],no binding
